42 sequences from PMC7819943, “Rice protein-binding microarrays: a tool to detect cis-acting elements near promoter regions in rice” can be followed below.

Amino acid sequences for entries named in this document (tags omitted).
UniProt Q0JBA9, entry or part of it: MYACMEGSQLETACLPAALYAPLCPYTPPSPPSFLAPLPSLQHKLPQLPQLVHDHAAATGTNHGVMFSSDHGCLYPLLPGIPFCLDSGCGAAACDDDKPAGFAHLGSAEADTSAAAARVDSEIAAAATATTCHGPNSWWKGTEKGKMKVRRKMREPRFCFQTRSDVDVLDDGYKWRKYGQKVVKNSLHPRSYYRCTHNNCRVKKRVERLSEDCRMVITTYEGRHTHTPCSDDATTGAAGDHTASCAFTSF

Some of the results follow.

The target in this assay is OsWRKY34 (Oryza sativa, UniProt Q0JBA9 1-250). Put plainly: protein-binding microarray (RPBM); PBS, 2% BSA, 51.3 ng/ul salmon testes DNA, 50 uM zinc acetate, 200 nM TF, 25 C, 1 h; high values mean tight binding. Conditions: protein: recombinant; tags: N-terminal polyhistidine and DsRed monomer fusion (pET32a); label: CyDye5-dUTP incorporated in the synthesized complementary strand; 3' TTTTT single-stranded linker to array surface; dsDNA, one strand shown. In outline:
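The binding signal is fluorescence intensity per feature, in arbitrary units, read on an Axon 4000B scanner. Polyhistidine- and DsRed-tagged transcription factors (N-terminal fusions) from E. coli BL21-CodonPlus were purified on Ni–NTA and applied at 200 nM for 1 h at 25 °C to a double-stranded, BSA-blocked custom Agilent array in buffer with 50 µM zinc acetate.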
Take “CGCGCTCGCGACGCTCCGCTCCCCGGTGCCCGGTCCCCATCGGAGTCACCTAGTGCAG”: the binding signal was 8790 fluorescence intensity (a.u.). The value for “AGTAGTCTCTGTAGTTTCCATATAGAACTCTACTTGTCCTCGGAGTCACCTAGTGCAG” was 8560 fluorescence intensity (a.u.); that for “AAACTTCCAACTTTTCCGTCACATCGACACACATAAACTTCGGAGTCACCTAGTGCAG” was 8990 fluorescence intensity (a.u.).

Take “GCCCAGATCCAAAAATACCCATTTTCCCATCCTTCACCGACGGAGTCACCTAGTGCAG”: the binding signal is 9560 fluorescence intensity (a.u.). Under “AGCTTATCTTGTCGTGTGTTTATGCCTTGATGCAAGCTATCGGAGTCACCTAGTGCAG” stands 8540 fluorescence intensity (a.u.); under “TTCCCAATAAAATTTTTGTACGTATACCATTGCTAAAGAACGGAGTCACCTAGTGCAG”, 8290 fluorescence intensity (a.u.). The value for “AACATTATGCGTCCGCCTTTGGTCCGGTGTGACACTGTGACGGAGTCACCTAGTGCAG” was 8320 fluorescence intensity (a.u.); that for “AACCTTTTTAGCCAAATGCATGATCATATTGTTGTCCATTCGGAGTCACCTAGTGCAG” was 8100 fluorescence intensity (a.u.); that for “CGCTCACTCGTCTCCTCTCGGTTTCTTTCTCTCTCTCTCTCGGAGTCACCTAGTGCAG” was 8160 fluorescence intensity (a.u.). The value for “ATAATTAATGGGTAAAGTTTTTTTTATATTTTTGTTGTTTCGGAGTCACCTAGTGCAG” was 9510 fluorescence intensity (a.u.); that for “CTTCTTCTTCTTCTTCAGCTCGAGTTCTTCCTTAGCCATGCGGAGTCACCTAGTGCAG” was 10600 fluorescence intensity (a.u.).

Consider “TTCGTTTCTGGCTTTTTCGTCGTGTTCCGATTTCAATCTCCGGAGTCACCTAGTGCAG”, for which the binding signal is 12700 fluorescence intensity (a.u.). Under “TCGCCTTTCTGATCCACCGGTGACTCGGCCGGCCCGGTTGCGGAGTCACCTAGTGCAG” stands 10100 fluorescence intensity (a.u.). Under “TCTCTTTTCTCTCTCGCGCACGACCGCGCGACGCGAAGGTCGGAGTCACCTAGTGCAG” stands 9680 fluorescence intensity (a.u.); under “ATCTCGTTTCGTCCTCGCCCGCCGCCTCCGCTTCCCATTCCGGAGTCACCTAGTGCAG”, 15700 fluorescence intensity (a.u.). Under “TGCTGACAAAGCCTGTTGAGATCCAGGTGGGTGGGAGGAGCGGAGTCACCTAGTGCAG” stands 8900 fluorescence intensity (a.u.); under “CACTCGTGACCTCAACCAAGCCCACCTTGCCTCACCATTGCGGAGTCACCTAGTGCAG”, 8200 fluorescence intensity (a.u.); under “GATCGTGGAATTAATTCCACCTTAGTTGTTATGGGCGGGTCGGAGTCACCTAGTGCAG”, 11400 fluorescence intensity (a.u.). With “TACCTCCGCTTCACCTTCACCTGCGCGATTCCGGCGAGCCCGGAGTCACCTAGTGCAG”, the binding signal was 10100 fluorescence intensity (a.u.).

With “GCAGTGACACGTCGACGCGGCGCCCTCGTCTCGTGTGATCCGGAGTCACCTAGTGCAG”, the binding signal was 8260 fluorescence intensity (a.u.). Under “TTGCGTCTTCCGCTTCCGACCGCGACCCACTCCCACCATTCGGAGTCACCTAGTGCAG” stands 11000 fluorescence intensity (a.u.); under “GTCCTTTTTCTTTTACGTAAACACGTAAGTTTCATACCACCGGAGTCACCTAGTGCAG”, 8480 fluorescence intensity (a.u.). The value for “ACCGATTGCTACTCCTATTATGGAGATCGCACGCTTTTTCCGGAGTCACCTAGTGCAG” was 10100 fluorescence intensity (a.u.). The value for “AAACTTCTTTCTTTGTACCTAATCATTGGTCAACCCAACTCGGAGTCACCTAGTGCAG” was 9830 fluorescence intensity (a.u.); that for “TGCTTTCGGCCCATCTCCACCCACACCCGTATCGTCTCTTCGGAGTCACCTAGTGCAG” was 11300 fluorescence intensity (a.u.); that for “TATCAGCCCAATATTGTACACGACTCCCAAATCGCTTTCTCGGAGTCACCTAGTGCAG” was 10100 fluorescence intensity (a.u.). As for “ATTTTAATGTATGACGCCGTTGACTTTTTGTCCAACGTTTCGGAGTCACCTAGTGCAG”, the binding signal is 25600 fluorescence intensity (a.u.). The value for “AATCTACACACTCACTAGAAATATACATGTTTGTCCATATCGGAGTCACCTAGTGCAG” was 8100 fluorescence intensity (a.u.); that for “TGCCTCTTAACTCGTCGCTCTACTTTGCTTGCCACCAACACGGAGTCACCTAGTGCAG” was 13600 fluorescence intensity (a.u.). “ACGTGTGTGTTGTGAGCGCCTGCATTTTTGTAACTTGTTACGGAGTCACCTAGTGCAG”: the binding signal was 9050 fluorescence intensity (a.u.).

Regarding “GTTTGTCGTACTCCTTTTCTTCTCTATTCTTCTCAGTACTCGGAGTCACCTAGTGCAG”, the binding signal is 8400 fluorescence intensity (a.u.). Under “TTATTTCCTCACCATTTTCAACTTCTACCTTTCGTTTTTCCGGAGTCACCTAGTGCAG” stands 8260 fluorescence intensity (a.u.); under “GTTCTTCTCCTTCTTCTTCTTCTTGTTACCTTTAATCCTCCGGAGTCACCTAGTGCAG”, 11900 fluorescence intensity (a.u.). “ATCCATAATGTAAAATTTTACCGTGTCACATCGAATATTACGGAGTCACCTAGTGCAG”: the binding signal was 9330 fluorescence intensity (a.u.). Take “ACATAATCTGACATTTTTCCTCAATTGATTGATCTTCTGCCGGAGTCACCTAGTGCAG”: the binding signal is 8120 fluorescence intensity (a.u.). Under “AATTCCCAGTCGGTCGTGCCCTAATCCCTCATTTCCTCTCCGGAGTCACCTAGTGCAG” stands 12300 fluorescence intensity (a.u.). The value for “ACTGCATATTGATTTACGTGAATTTTTTTTTGTCTTTTTTCGGAGTCACCTAGTGCAG” was 11200 fluorescence intensity (a.u.); that for “CTTGGGCCCTCAAAGGTTATCTTTGCTCACTCTTTCTTTTCGGAGTCACCTAGTGCAG” was 11100 fluorescence intensity (a.u.). Under “GATGGTCAAAGTTATTAAAGTTTGACCTCAACCTTATTCACGGAGTCACCTAGTGCAG” stands 10600 fluorescence intensity (a.u.). As for “TCCATGCACAACCTAATTTCACTAAATTATACCATTTACACGGAGTCACCTAGTGCAG”, the binding signal is 9550 fluorescence intensity (a.u.).

Consider “AGATGTCGTCGACGACCAGGCCAACCTGGCAATGTAAATTCGGAGTCACCTAGTGCAG”, for which the binding signal was 9670 fluorescence intensity (a.u.).

As to “TTGCTAGTGGGTGTGTTATTCGCCGCCTTTTATCGATCCGCGGAGTCACCTAGTGCAG”, the binding signal is 12300 fluorescence intensity (a.u.).
